# In US20090252788A1, “Balsalazide formulations and manufacture and use thereof” (Salix Pharmaceuticals, Inc., priority 2005, published 2009):
# At least one compound was matched to its structure with a doubt left.
# Assay: Particle size distribution and specific surface area (LS 200, Small Volume Module, Fraunhofer optical model)
# Type: physicochemical
# Conditions: Particle Diameter (Lower) 18.86 μm
# Excerpt: FIG. 2 depicts and the data below tabulate for Sample 1 the arithmetic statistics describing surface area, particle size, and cumulative volume characteristics for one lot of drug substance (feed material). The particle size distribution for this lot is depicted in FIG. 2.
# Table 11 A-D tabulates the arithmetic statistics describing surface area, particle size, and cumulative volume characteristics for three lots of drug substance (feed material). The particle size distributions for these lots are depicted in FIG. 7. […] Of these three lots of drug substance, 100% of the particles are less than 83.89 μm, 373.1 μm, and 69.61 μm, respectively.
# Table 12 tabulates the arithmetic statistics describing surface area, particle size, and cumulative volume characteristics for three lots of drug product (encapsulated granulation samples) that were manufactured with the three lots of drug substance (feed material) as depicted in FIG. 7. […] Of these three lots of drug product, 100% of the granules are less than 1660 μm, 2000 μm, and 1512 μm, respectively. The particle size distributions for these three lots are depicted in FIG. 8.
structure (smiles),measurement,value
O=C(O)CCNC(=O)c1ccc(/N=N/c2ccc(O)c(C(=O)O)c2)cc1 [Feed Powder Sample C (#53.$02)],Cum. < Volume %,91:6%
